# Measurements taken from PubChem BioAssay AID504467 (National Center for Advancing Translational Sciences (NCATS), 2011).
# About 7,700 (2.3%) of roughly 330,000 compounds were called active. The inconclusive results got no clear call from the source; some entries with a clear call stand among them for comparison. Calls follow the shape of the dose curve; as a rule, active = well fitted inhibition curve with a large enough effect; inconclusive = small, poorly fitted or top-dose-only effect, or effect the other way; inactive = flat fitted curve, though single readings scatter. Potencies beside an inconclusive call are fits to weak or partial responses and may not hold up.
# Test: qHTS screen for small molecules that inhibit ELG1-dependent DNA repair in human embryonic kidney (HEK293T) cells expressing luciferase-tagged ELG1; also: nearly all actives have a fitted effect of over 55% in size
# Conditions: HEK293T ELG1-luciferase reporter, luminescence, 16 h, DNA damage induced by 5-fluorouridine; activity change, negative = inhibition: at 46.1 µM (top of the series)
# How it was run: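 Cells (2,000 per well) received 5-fluorouridine plus test compound or DMSO and were incubated 16 hr at 37 °C, 5% CO2. Luciferase activity was read by luminescence 30 min after ONE-Glo addition; signal suppression marked inhibition of damage-induced ELG1 function.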
# % is scaled to controls: 0 for no effect and ±100 for the full control effect; potency is read from the fitted curve at half-maximal effect.
Structure (SMILES),Potency,"activity change, negative = inhibition"
O=C(CSc1n[nH]c(-c2ccco2)n1)Nc1sc2c(c1C(=O)Nc1ccccc1)CCCC2,"inconclusive: 23.1 µM [inhibitor, partial curve, poor fit]",
CCCc1[nH]nc2c1C(/C(C)=C/c1ccccc1)C(C#N)=C(N)O2 (centres undefined),"inconclusive: 32.6 µM [inhibitor, single point]",
CCC(C)NC(=O)CSC1=Nc2ccccc2C2=NC(c3ccccc3)C(=O)N12 (centres undefined),,inactive: 0.287%
O=C(Cc1cccs1)N/N=C/C=C/c1ccccc1[N+](=O)[O-],"inconclusive: 18.3 µM [activator, partial curve]",
O=C(OCc1nnc(-c2ccccc2)o1)c1cc(S(=O)(=O)N2CCOCC2)c(Cl)cc1Cl,,inactive: 0%
O=C(NCCc1ccccc1)c1cnc2n(c1=O)CCS2,"inconclusive: 20.6 µM [activator, partial curve]",
COc1ccc(CCC(=O)OCc2csc(CC(=O)Nc3ccccc3C)n2)cc1,,inactive: 19.8%
O=C(Cc1ccccc1F)Nc1cc(S(=O)(=O)N2CCCC2)ccc1Cl,,inactive: 9.79%
O=C(N/N=C/c1cc(Cl)ccc1O)c1cccnc1,"inconclusive: 6.51 µM [inhibitor, single point]",
COc1ccc(-n2c(SCc3ccccn3)nc3c(c2=O)SCC3)cc1OC,,inactive: 3.58%
Nc1ccc(OCc2ccccc2)cc1,"inconclusive: 14.6 µM [activator, partial curve]",
Cc1c(CC(=O)NCC(C)C)c(=O)oc2cc3c(cc12)CCC(C)(C)O3,,inactive: 11.1%
Cc1ccc(C(=O)Nc2cc(C(C)C)c(O)c(C(C)C)c2)cc1,"inconclusive: 3.66 µM [inhibitor, full curve]",
CCOC(=O)C1=C(O)C(=O)N(c2ccccc2)C1c1cccc([N+](=O)[O-])c1 (centres undefined),"inconclusive: 18.3 µM [inhibitor, single point]",
CSc1ccccc1C(=O)N1CCCC(CCC(=O)NCc2ccc(F)c(F)c2)C1 (centres undefined),"inconclusive: 32.6 µM [inhibitor, partial curve, poor fit]",
O=C(N/N=C/c1ccccn1)c1c[nH]c2ccccc12,"inconclusive: 18.3 µM [activator, partial curve]",
Cc1cc2oc(C(=O)Nc3nonc3C)c(C)c2cc1C,"inconclusive: 9.2 µM [activator, partial curve]",
COc1ccc(N2CCC(CNC(=S)Nc3cc(C)ccc3C)C2)cc1 (centres undefined),"inconclusive: 32.6 µM [inhibitor, partial curve, poor fit]",
O=C1CC(C(=O)Nc2ccc(C(=O)O)cc2)C(c2ccccc2)O1 (centres undefined),"inconclusive: 11.6 µM [activator, partial curve, poor fit]",

# 3 structures out of the list, arranged by number of heavy atoms, rising:
Structure (SMILES),Potency,"activity change, negative = inhibition"
O=C(Cc1ccccc1F)Nc1cc(S(=O)(=O)N2CCCC2)ccc1Cl,,inactive: 9.79%
CCC(C)NC(=O)CSC1=Nc2ccccc2C2=NC(c3ccccc3)C(=O)N12 (centres undefined),,inactive: 0.287%
CSc1ccccc1C(=O)N1CCCC(CCC(=O)NCc2ccc(F)c(F)c2)C1 (centres undefined),"inconclusive: 32.6 µM [inhibitor, partial curve, poor fit]",
